PubChem BioAssay AID602196 – INSERM, 2012

Assay: 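Genes whose knock-down alters cisplatin killing of lung cancer cells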
Cell system: human A549 lung cancer cells
Reagents: siRNA pair against human genes
Duration: 48 h transfection before cisplatin; time from cisplatin to read-out not stated
Challenge: cisplatin at a dose killing half of control-siRNA cells; exact dose and duration not given
Detection: 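Cisplatin cell death as a shift from the 50% death seen with control siRNA; siRNAs toxic or growth-blocking alone scored 0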
Direction: two-siRNA summed score (-2 to +2): higher = both siRNAs protect from cisplatin killing; -2 means both sensitise; mean protection from cisplatin (shift in death): higher = protection from cisplatin killing
Active means: 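Each siRNA scores 0 if harmful alone by LDH or WST-1, otherwise +1 if it reduces and -1 if it increases cisplatin killing; a gene is active when both siRNAs agree (sum +2 or -2)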
Meaning of the calls: active = both siRNAs shift cisplatin killing the same way; inactive = no consistent shift, or siRNA harmful alone
The whole screen tested about 23,000 reagents; this is a part drawn at random. 455 of them (2%) were called active. 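Active includes both protection and sensitisation; some change values fall well beyond the stated -50 to +50 range.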 Reagents against one gene are numbered here. Not all columns of the deposit are shown. Not given: the amount of reagent.

LOC389437: two-siRNA summed score (-2 to +2) = 0; mean protection from cisplatin (shift in death) (%) = 4.5; Call = inactive
FLJ40194 (GeneID 124871): two-siRNA summed score (-2 to +2) = 0; mean protection from cisplatin (shift in death) (%) = 4.3; Call = inactive
PPFIA2 (GeneID 8499): two-siRNA summed score (-2 to +2) = 0; mean protection from cisplatin (shift in death) (%) = -6.7; Call = inactive
ORC3 (GeneID 23595): two-siRNA summed score (-2 to +2) = 0; mean protection from cisplatin (shift in death) (%) = -0.5; Call = inactive
MRPL39 (GeneID 54148): two-siRNA summed score (-2 to +2) = 0; mean protection from cisplatin (shift in death) (%) = 14.8; Call = inactive
LOC401619: two-siRNA summed score (-2 to +2) = 0; mean protection from cisplatin (shift in death) (%) = 8.9; Call = inactive
IL18RAP (GeneID 8807): two-siRNA summed score (-2 to +2) = -1; mean protection from cisplatin (shift in death) (%) = -14.2; Call = inactive
PTCD3 (GeneID 55037): two-siRNA summed score (-2 to +2) = 0; mean protection from cisplatin (shift in death) (%) = -0.6; Call = inactive
PPT2 (GeneID 9374): two-siRNA summed score (-2 to +2) = 1; mean protection from cisplatin (shift in death) (%) = 13.8; Call = inactive
SHBG (GeneID 6462): two-siRNA summed score (-2 to +2) = 0; mean protection from cisplatin (shift in death) (%) = -0.3; Call = inactive
HOXC10 (GeneID 3226): two-siRNA summed score (-2 to +2) = 0; mean protection from cisplatin (shift in death) (%) = -0.1; Call = inactive
LOC387864: two-siRNA summed score (-2 to +2) = 0; mean protection from cisplatin (shift in death) (%) = 3.1; Call = inactive
OR8J3 (GeneID 81168): two-siRNA summed score (-2 to +2) = 0; mean protection from cisplatin (shift in death) (%) = -7.6; Call = inactive
PROM1 (GeneID 8842): two-siRNA summed score (-2 to +2) = 0; mean protection from cisplatin (shift in death) (%) = 4.2; Call = inactive
FOXRED2 (GeneID 80020): two-siRNA summed score (-2 to +2) = 1; mean protection from cisplatin (shift in death) (%) = 8.9; Call = inactive
TPT1P4 (GeneID 285741): two-siRNA summed score (-2 to +2) = 0; mean protection from cisplatin (shift in death) (%) = 12.4; Call = inactive
RPL26L1 (GeneID 51121): two-siRNA summed score (-2 to +2) = 0; mean protection from cisplatin (shift in death) (%) = 8.2; Call = inactive
SLC5A2 (GeneID 6524): two-siRNA summed score (-2 to +2) = 1; mean protection from cisplatin (shift in death) (%) = 22; Call = inactive
CXCL13 (GeneID 10563): two-siRNA summed score (-2 to +2) = -1; mean protection from cisplatin (shift in death) (%) = -15.7; Call = inactive

Next part (4 carried over from the part before).
TPT1P4 (GeneID 285741): two-siRNA summed score (-2 to +2) = 0; mean protection from cisplatin (shift in death) (%) = 12.4; Call = inactive
RPL26L1 (GeneID 51121): two-siRNA summed score (-2 to +2) = 0; mean protection from cisplatin (shift in death) (%) = 8.2; Call = inactive
SLC5A2 (GeneID 6524): two-siRNA summed score (-2 to +2) = 1; mean protection from cisplatin (shift in death) (%) = 22; Call = inactive
CXCL13 (GeneID 10563): two-siRNA summed score (-2 to +2) = -1; mean protection from cisplatin (shift in death) (%) = -15.7; Call = inactive
MNX1 (GeneID 3110): two-siRNA summed score (-2 to +2) = 0; mean protection from cisplatin (shift in death) (%) = -2.5; Call = inactive
LOC388496: two-siRNA summed score (-2 to +2) = 1; mean protection from cisplatin (shift in death) (%) = 8.9; Call = inactive
UCK2 (GeneID 7371): two-siRNA summed score (-2 to +2) = 2; mean protection from cisplatin (shift in death) (%) = 12; Call = active
DENND2C (GeneID 163259): two-siRNA summed score (-2 to +2) = 0; mean protection from cisplatin (shift in death) (%) = -2.3; Call = inactive
TRMU (GeneID 55687): two-siRNA summed score (-2 to +2) = 0; mean protection from cisplatin (shift in death) (%) = 12.9; Call = inactive
CCL1 (GeneID 6346): two-siRNA summed score (-2 to +2) = 0; mean protection from cisplatin (shift in death) (%) = 4.2; Call = inactive
CNTN1 (GeneID 1272): two-siRNA summed score (-2 to +2) = 1; mean protection from cisplatin (shift in death) (%) = 11.5; Call = inactive
CCNDBP1 (GeneID 23582): two-siRNA summed score (-2 to +2) = 0; mean protection from cisplatin (shift in death) (%) = 12.3; Call = inactive
CFAP57 (GeneID 149465): two-siRNA summed score (-2 to +2) = 0; mean protection from cisplatin (shift in death) (%) = 5.5; Call = inactive
OR52E5 (GeneID 390082): two-siRNA summed score (-2 to +2) = 2; mean protection from cisplatin (shift in death) (%) = 26.7; Call = active
GATA2 (GeneID 2624): two-siRNA summed score (-2 to +2) = 1; mean protection from cisplatin (shift in death) (%) = 5.2; Call = inactive
NDUFAF4 (GeneID 29078): two-siRNA summed score (-2 to +2) = 0; mean protection from cisplatin (shift in death) (%) = 12.7; Call = inactive
ARFGAP1 (GeneID 55738): two-siRNA summed score (-2 to +2) = 0; mean protection from cisplatin (shift in death) (%) = 6.2; Call = inactive
MED23 (GeneID 9439): two-siRNA summed score (-2 to +2) = -1; mean protection from cisplatin (shift in death) (%) = -12.1; Call = inactive
FSD1L (GeneID 83856) #1: two-siRNA summed score (-2 to +2) = 0; mean protection from cisplatin (shift in death) (%) = -2.9; Call = inactive
FSD1L (GeneID 83856) #2: two-siRNA summed score (-2 to +2) = 0; mean protection from cisplatin (shift in death) (%) = 4.8; Call = inactive
RHOBTB3 (GeneID 22836): two-siRNA summed score (-2 to +2) = 0; mean protection from cisplatin (shift in death) (%) = 11.4; Call = inactive
DMC1 (GeneID 11144): two-siRNA summed score (-2 to +2) = -1; mean protection from cisplatin (shift in death) (%) = -11.3; Call = inactive
FAM225A (GeneID 286333): two-siRNA summed score (-2 to +2) = 0; mean protection from cisplatin (shift in death) (%) = 15.5; Call = inactive
PTPRCAP (GeneID 5790): two-siRNA summed score (-2 to +2) = 0; mean protection from cisplatin (shift in death) (%) = 13.9; Call = inactive
LOC90835: two-siRNA summed score (-2 to +2) = -1; mean protection from cisplatin (shift in death) (%) = -6; Call = inactive
